Results are given in words; binding and its absence hold for the method and conditions named. Binding seen in cells or lysates may run through a third protein. Tags and fused reporters may be left off the sequences shown.
Target: T1, YN–TRM1 (TON1 RECRUITMENT MOTIF1 fused to the N-terminal half of YFP) (UniProt Q9S823)
T1 sequence: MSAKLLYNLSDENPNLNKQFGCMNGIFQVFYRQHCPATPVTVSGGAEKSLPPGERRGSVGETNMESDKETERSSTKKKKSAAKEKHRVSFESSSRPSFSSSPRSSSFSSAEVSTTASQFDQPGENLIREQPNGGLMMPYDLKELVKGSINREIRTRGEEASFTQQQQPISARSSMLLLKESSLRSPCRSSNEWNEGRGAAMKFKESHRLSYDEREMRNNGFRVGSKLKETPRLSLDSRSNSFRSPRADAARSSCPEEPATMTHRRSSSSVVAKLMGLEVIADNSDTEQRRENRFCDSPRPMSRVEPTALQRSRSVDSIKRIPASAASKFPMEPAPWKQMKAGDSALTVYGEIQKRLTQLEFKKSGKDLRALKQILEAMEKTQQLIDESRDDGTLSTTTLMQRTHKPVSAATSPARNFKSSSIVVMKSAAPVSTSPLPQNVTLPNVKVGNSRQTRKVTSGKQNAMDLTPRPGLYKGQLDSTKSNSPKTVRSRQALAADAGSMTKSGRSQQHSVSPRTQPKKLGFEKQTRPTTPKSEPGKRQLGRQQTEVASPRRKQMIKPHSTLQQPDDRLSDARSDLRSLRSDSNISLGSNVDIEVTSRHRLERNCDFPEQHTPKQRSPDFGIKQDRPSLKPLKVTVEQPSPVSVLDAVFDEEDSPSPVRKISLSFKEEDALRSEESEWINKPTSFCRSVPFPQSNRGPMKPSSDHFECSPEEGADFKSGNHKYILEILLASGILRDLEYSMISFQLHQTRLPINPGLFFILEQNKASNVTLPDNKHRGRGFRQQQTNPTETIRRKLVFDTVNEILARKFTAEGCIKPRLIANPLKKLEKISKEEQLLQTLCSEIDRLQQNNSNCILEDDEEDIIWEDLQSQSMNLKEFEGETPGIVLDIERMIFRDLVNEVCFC
Test: split reporter; BiFC: YN and YC fusions transiently co-expressed in N. benthamiana leaves by Agrobacterium infiltration; YFP fluorescence by confocal imaging with identical laser settings

Substance: YC–CaM2 (CaM2 fused to the C-terminal half of YFP) (from UniProt P0DH97 1-149)
- binding: no binding

From publication PMC6322583
